Source: paper PMC4047118, “BM-1197: A Novel and Specific Bcl-2/Bcl-xL Inhibitor Inducing Complete and Long-Lasting Tumor Regression In Vivo” (PLoS ONE, 2014)
These are yes or no findings as the source states them, for the method shown. Binding seen in cells or lysates may run through a third protein. Some entries that bind do so weakly or less than the wild type.

Chains of the proteins cited; added tags and fusions are not shown. Lines headed by an entry give the natural chain unless they say otherwise; changes in a name come on top.
UniProt Q64373: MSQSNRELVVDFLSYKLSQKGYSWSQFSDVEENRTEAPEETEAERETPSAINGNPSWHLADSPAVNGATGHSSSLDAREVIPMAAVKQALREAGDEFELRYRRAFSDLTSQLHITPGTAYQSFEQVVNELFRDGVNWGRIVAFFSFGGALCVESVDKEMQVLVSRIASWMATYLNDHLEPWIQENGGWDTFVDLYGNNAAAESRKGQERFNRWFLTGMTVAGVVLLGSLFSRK

T1: Puma (mouse, MCL1-/- MEF cells) (mouse (endogenous in MEF)) (UniProt Q99ML1)
T1 sequence: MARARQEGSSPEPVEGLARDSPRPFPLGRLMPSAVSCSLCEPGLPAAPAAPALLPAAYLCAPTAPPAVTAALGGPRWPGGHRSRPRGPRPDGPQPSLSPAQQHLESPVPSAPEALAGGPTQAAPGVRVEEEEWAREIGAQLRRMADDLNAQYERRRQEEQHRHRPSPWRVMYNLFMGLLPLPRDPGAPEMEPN


Assays:
[1] = biological target: T1, Puma (mouse, MCL1-/- MEF cells) (mouse (endogenous in MEF)); test: co-IP; endogenous proteins; MCL1-/- MEF cells treated with DMSO or BM-1197 (50 nM), lysed with CHAPS buffer (150 mM NaCl, 10 mM HEPES pH 7.4, 0.5% Chaps); immunoprecipitation with the indicated antibodies, immunoblot
[2] = biological target: Bcl-xL (mouse, MCL1-/- MEF cells) (mouse (endogenous in MEF)) (UniProt Q64373); test: as above

| binding [1] | binding [2] | Molecule |
| --- | --- | --- |
| binds |  | Bcl-xL (mouse, MCL1-/- MEF cells) (from UniProt Q64373-1 1-233) |
|  | binds | Puma (mouse, MCL1-/- MEF cells) (protein, UniProt Q99ML1 1-193) MARARQEGSSPEPVEGLARDSPRPFPLGRLMPSAVSCSLCEPGLPAAPAAPALLPAAYLCAPTAPPAVTAALGGPRWPGGHRSRPRGPRPDGPQPSLSPAQQHLESPVPSAPEALAGGPTQAAPGVRVEEEEWAREIGAQLRRMADDLNAQYERRRQEEQHRHRPSPWRVMYNLFMGLLPLPRDPGAPEMEPN |
